Values joined by “and” are separate entries in the source; they are usually repeats but may differ in a detail not shown here. Identical values can stand only once. Screen size: about 410,000 compounds; about 18,000 (4.4%) were called active. Inconclusive results, whose numbers are uncertain, are shown with a selection of clear calls. Rule as the data show it: active = activity change below about -60%; inconclusive = no clear call, values can overlap the other calls; inactive = above about -39%.
Assay: qHTS Assay for inhibitors of the human cytomegalovirus (HCMV)
Details: HFF cells, HCMV-luciferase reporter, 72 h; at 57.5 µM; active compounds read low
Procedure, shortened: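 Screen run at 2 compound doses on HFFs infected with reporter HCMV, MOI 1 PFU/cell. Luciferase activity from cell lysates at 72 h post infection gave inhibition relative to buffer-only and Salinomycin wells.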
% is scaled to controls: 0 for no effect and ±100 for the full control effect.

SMILES	activity change, negative = inhibition
COC(=O)C1=C(c2ccc3ccccc3c2)C[C@@H]2CC[C@H]1N2C(=O)NCC1CC1	inactive: -39.7%
O=S(=O)(c1ccc(Cl)cc1)N1CCC(N2CCOCC2)CC1	inactive: -6%
CC(=O)Nc1sc(N/N=C\c2ccccc2F)nc1-c1cccs1	inconclusive: -46.5%
CC(C)c1ccc(CCNC(=O)CCNS(=O)(=O)c2ccc(Br)cc2)cc1	inactive: -29.4%
OC(c1ccc(F)c(F)c1)c1ncc(-c2ccc(Cl)cc2)[nH]1 (stereo unspecified)	active: -64.5%
CCOC(=O)C(NC(=O)c1cccc(Cl)c1)(OCc1ccc(F)cc1)C(F)(F)F (stereo unspecified)	inconclusive: -41.7%
c1ccc(CSc2nnc3ccc(-c4cccs4)nn23)nc1	inconclusive: 0%
COc1ccccc1C(=O)NCCn1ccc2ccccc21	inactive: 5.68%
Cc1cc(C)cc(OCC(O)CN2CCN(Cc3ccc4c(c3)OCO4)CC2)c1 (stereo unspecified)	inconclusive: -41.2%
Cc1nc2ccc(S(=O)(=O)N(C)CC(=O)NCc3ccc(N(C)C)cc3)cc2s1	inconclusive: -46.1%
CCc1n[nH]c(=S)n1/N=C/c1cc(Br)c(O)c(OC)c1	inconclusive: -45.6%
O=[N+]([O-])c1c(Cl)cc(Cl)cc1Cl	inconclusive: -47.5%
Cc1c(Cl)cccc1NC(=S)NCCc1ccc(F)cc1	inconclusive: -45.1%
CC1Cc2ccccc2N1C(=O)C1CCN(S(=O)(=O)c2cccs2)CC1 (stereo unspecified)	inconclusive: -42.5%
Cc1ccccc1Cn1c(=O)n(Cc2ccco2)c(=O)c2ccccc21	inconclusive: -40.1%
O=c1cc(C2CCCCC2)[nH]c(=O)[nH]1	inactive: 27.3%
O=C(CSC(=S)N1CCCC1)c1cc(Br)cc(Br)c1O	inconclusive: -40.7%
O=C(Nc1nccs1)C1CCCN(S(=O)(=O)c2cccc3cccnc23)C1 (stereo unspecified)	inconclusive: -43.9%
O=C(CSc1ccc(-c2ccccn2)nn1)Nc1ccc(F)cc1F	inactive: 14.5% and inactive: 5.15%

SMILES	activity change, negative = inhibition
O=C(Cc1ccc2c(c1)OCCO2)N1CCN(S(=O)(=O)c2ccccc2C(F)(F)F)CC1	inconclusive: -41.6%
Cc1csc(NC(=O)CN2C(=O)COc3ccc(Cl)cc32)n1	inconclusive: -45.7%
COc1ccccc1CN1CC(C(=O)N(Cc2cnn(C)c2)C(C)C)CCC1=O (stereo unspecified)	inactive: -3.51%
CN(CC(=O)Nc1cccc(F)c1)C(=O)c1cccc(S(=O)(=O)N2CCN(c3ccc(F)cc3)CC2)c1	inconclusive: -48%
CC/C(=N/N=C(/CC)c1ccc(O)cc1)c1ccc(O)cc1	active: -99.3%
S=C(NCCc1ccccc1)Nc1cccc2cnccc12	active: -94.8%
Cc1ccc(NC(=O)c2nc(S(=O)(=O)Cc3ccccc3C)ncc2Cl)cc1C	active: -98.1%
Cc1cc(C)n(CC(=O)N/N=C/c2ccc3c(c2)OCO3)n1	inconclusive: -54.5%
COc1cccc(NC(=O)c2nnn(CC(=O)Nc3cc(C)cc(C)c3)c2N)c1	inconclusive: -46.2%
Cc1ccc(S(=O)(=O)N2CCc3cc(C(=O)Nc4c(F)cccc4F)ccc32)cc1	inactive: -14.3%
Cc1cc(=O)c(C(=O)Nc2cccc(C(=O)NC3CC3)c2)nn1-c1ccccc1	inactive: 18.3%
CSc1nc2ccc(NC(=O)C3CCCO3)cc2s1 (stereo unspecified)	inactive: 32.7%
CC(=NCc1cccnc1)c1c(O)n(C2CCCCC2)c(=O)[nH]c1=O	inconclusive: -53.8%
CCOC(=O)c1[nH]c2ccc(OC)cc2c1NC(=O)CN1CCc2ccccc2C1	inconclusive: -46.3%
C=CCOc1c(OC)cc(/C=N/Nc2cccc(C(=O)O)c2)c(Br)c1Br	inactive: -29.4%
Cc1ccc(Nc2cc(C)nn2-c2nc(C)cc(C)n2)cc1	inconclusive: -57.5%
O=C(CSc1nnc(CNC(=O)c2ccco2)o1)Nc1cccc(F)c1	inconclusive: -40.2%
CCCCOC(=O)c1ccc(N=Nc2c(C)c(C#N)c(O)[nH]c2=O)cc1	inconclusive: -40.2%
NC(=S)N=Nc1c(O)[nH]c2c(Br)cc(Br)cc12	inactive: 4.6%

SMILES	activity change, negative = inhibition
O=c1[nH]c(C2CCCN(S(=O)(=O)c3ccc(F)cc3)C2)nc2c1nnn2Cc1ccc(F)cc1 (stereo unspecified)	inconclusive: -44.6%
COCCNC(=O)/C(C#N)=C/c1ccc(SC)cc1	inactive: -26.5%
Cc1ccc2nc(NC(=O)CSc3ncc(C(=O)Nc4ccc(F)cc4)c(=O)n3C)sc2c1	inactive: 20.2%
Cc1ccc(Cl)c(NC(=O)COC(=O)c2ccccc2C(=O)c2ccc(Cl)c([N+](=O)[O-])c2)c1Cl	active: -102%
Cc1cc(Cl)n2c(nc3cc(F)c(F)cc32)c1C#N	active: -99%
O=[N+]([O-])c1ncc(Br)cc1Nc1ccccc1	inconclusive: -44.5%
O=C(CN1CCN(S(=O)(=O)c2cccc(Br)c2)CC1)N1CCCCC1	inconclusive: -55.5%
Cc1ccc2c(C)c(C(=O)Nc3ccc(S(=O)(=O)Nc4onc(C)c4C)cc3)oc2c1	inactive: -30.3%
CC(=O)Nc1ccc(S(=O)(=O)NNC(=O)COc2ccc(C)cc2)cc1	inconclusive: -50.8%
COc1ccc(CNC(=O)c2ccc3c(=O)n4c(nc3c2)CCCCC4)cc1OC	active: -74.5%
Cc1ccc(C(=O)CCC(=O)OCC(=O)N(C)c2c(N)n(Cc3ccccc3)c(=O)[nH]c2=O)cc1	inactive: -21%
O=C(COc1ccccc1[N+](=O)[O-])N/N=C/C=C/c1ccco1	inconclusive: -50%
Cc1cc(NC(=O)CCC(=O)N(c2ccccc2)C(C(=O)NC2CCCC2)c2cccs2)no1 (stereo unspecified)	inactive: 2.83%
CC(C)CCN(C(=O)Nc1ccccc1)C(C)c1cccs1 (stereo unspecified)	inconclusive: 0%
COc1ccc(CC(=O)OCC(=O)NNC(=O)c2ccccc2)cc1	inconclusive: -56.8%
CCOC(=O)c1ccc(NC(=O)CCn2ccc(C)n2)cc1	inactive: -5.02%
O=C(CCCN1C(=O)S/C(=C\c2ccccc2)C1=O)NNC(=O)c1ccccc1O	active: -82.7%
O=C(Nn1c(C2CCCCC2)nc2ccccc2c1=O)c1ccc([N+](=O)[O-])cc1	inconclusive: -50.8%

Reference: PubChem BioAssay AID1259415 (National Center for Advancing Translational Sciences (NCATS), 2018)
